{"source": "paper PMC5996148", "test_in_all_cases": "protein microarray (ProtoArray v5.0), streptavidin-Alexa Fluor 647", "details_in_all_cases": "3'-biotin; 20 mM Tris (pH 7.5), 5 mM MgCl2, 100 mM KCl, 0.1% Tween-20, A/T-rich and random oligonucleotide blockers; temperature not stated; high values mean tight binding", "key": {"SKP1A (human)": {"tested_on": "SKP1A (human)"}, "SLC1A6": {"target": "T1, SLC1A6 (UniProt P48664)", "T1 sequence": "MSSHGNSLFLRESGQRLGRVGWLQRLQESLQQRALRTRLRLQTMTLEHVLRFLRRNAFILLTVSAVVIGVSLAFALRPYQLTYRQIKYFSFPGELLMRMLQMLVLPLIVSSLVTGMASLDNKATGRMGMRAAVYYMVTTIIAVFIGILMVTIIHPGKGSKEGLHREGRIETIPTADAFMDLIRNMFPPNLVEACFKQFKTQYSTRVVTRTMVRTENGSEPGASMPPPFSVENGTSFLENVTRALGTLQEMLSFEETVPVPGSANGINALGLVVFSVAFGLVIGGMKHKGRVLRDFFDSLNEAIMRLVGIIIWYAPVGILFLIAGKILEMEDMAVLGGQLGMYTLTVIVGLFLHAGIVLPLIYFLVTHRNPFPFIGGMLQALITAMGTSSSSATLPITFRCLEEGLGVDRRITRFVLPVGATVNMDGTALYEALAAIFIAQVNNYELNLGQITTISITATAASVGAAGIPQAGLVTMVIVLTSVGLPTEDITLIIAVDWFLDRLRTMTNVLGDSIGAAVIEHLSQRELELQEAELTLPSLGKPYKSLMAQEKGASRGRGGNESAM"}, "SLC26A2 (human)": {"tested_on": "SLC26A2 (human)"}, "SLC2A5 (human)": {"tested_on": "SLC2A5 (human)"}, "SLC39A1 (human)": {"tested_on": "SLC39A1 (human)"}, "SLC40A1 (human)": {"tested_on": "SLC40A1 (human)"}, "SLC7A1 (human)": {"tested_on": "SLC7A1 (human)"}, "SMAD1 (human)": {"tested_on": "SMAD1 (human)"}, "SMCP (human)": {"tested_on": "SMCP (human)"}, "SMPD3 (human)": {"tested_on": "SMPD3 (human)"}}, "note": "Several values for one entry are separate records, joined by “and”; a condition that tells them apart may be missing. Identical values can stand only once. Some of the results follow. For some of these results: Construct or isoform of the protein are uncertain."}
{"sequence": "GGTGACAGGGGTATGGGGAGGGG [G4-2 biotinylated (Ct1)]", "values": [{"measurement": "binding signal", "setting": "SKP1A (human)", "result": -0.4, "unit": "z-score"}, {"measurement": "binding signal", "setting": "SLC1A6", "result": -0.368, "unit": "z-score"}, {"measurement": "binding signal", "setting": "SLC26A2 (human)", "result": -0.383, "unit": "z-score"}, {"measurement": "binding signal", "setting": "SLC2A5 (human)", "result": "-0.375 z-score and -0.385 z-score"}, {"measurement": "binding signal", "setting": "SLC39A1 (human)", "result": -0.382, "unit": "z-score"}, {"measurement": "binding signal", "setting": "SLC40A1 (human)", "result": -0.375, "unit": "z-score"}, {"measurement": "binding signal", "setting": "SLC7A1 (human)", "result": -0.393, "unit": "z-score"}, {"measurement": "binding signal", "setting": "SMAD1 (human)", "result": -0.386, "unit": "z-score"}, {"measurement": "binding signal", "setting": "SMCP (human)", "result": -0.393, "unit": "z-score"}, {"measurement": "binding signal", "setting": "SMPD3 (human)", "result": -0.383, "unit": "z-score"}]}
